Results: patent publication US20240201191A1, “CITRULLINATED PROTEINS AS BIOMARKERS AND THERAPY TARGETS FOR CANCER” (BOARD OF REGENTS, THE UNIVERSITY OF TEXAS SYSTEM, priority 2022, published 2024)
“Also recorded” adds a separate entry of the source.

System: cancer cell surface proteins (TACSTD2, EGFR, ERBB2 and others)
Assay: Cancer cell surface protein citrullination sites by biotin labeling and mass spectrometry
Parameters: species or system human
Settings: mass spectrometry
[1] = peptide of TACSTD2 (TROP2), trypsin digest
[2] = peptide of EGFR, trypsin digest
[3] = peptide of ERBB2, trypsin digest
[4] = peptide of NECTIN4, trypsin digest
[5] = peptide of CD44 (CSPG8), trypsin digest
[6] = peptide of CEACAM5, trypsin digest
[7] = peptide of HSP90AA1 (HSP90), trypsin digest
[8] = peptide of CD99, trypsin digest
[9] = peptide of IGF1R, trypsin digest
[10] = peptide of CD22, trypsin digest

## SEQ ID NO: 144 (TLVRPSEHALVDNDGLYDPDCDPEGR; MOD_RES (4)..(4) Citrullinated Arginine; MOD_RES (26)..(26) Citrullinated Arginine)
[1]
  Modification (citrullination site identified): R4(Cit.);; also recorded: R26(Cit.)

## SEQ ID NO: 145 (HRPTAGAFNHSDLDAELR; MOD_RES (2)..(2) Citrullinated Arginine; MOD_RES (18)..(18) Citrullinated Arginine)
[1]
  Modification (citrullination site identified): R2(Cit.);; also recorded: R18(Cit.)

## SEQ ID NO: 146 (FVAAVHYEQPTIQIELR; MOD_RES (17)..(17) Citrullinated Arginine)
[1]
  Modification (citrullination site identified): R17(Cit.)

## SEQ ID NO: 147 (AAGDVDIGDAAYYFER; MOD_RES (16)..(16) Citrullinated Arginine)
[1]
  Modification (citrullination site identified): R16(Cit.)

## SEQ ID NO: 148 (DIKGESLFQGRGGLDLR; MOD_RES (11)..(11) Citrullinated Arginine; MOD_RES (17)..(17) Citrullinated Arginine)
[1]
  Modification (citrullination site identified): R11(Cit.);; also recorded: R17(Cit.)

## SEQ ID NO: 149 (RLTAGLIAVIVVVVVALVAGMAVLVITNR; MOD_RES (1)..(1) Citrullinated Arginine)
[1]
  Modification (citrullination site identified): R1(Cit.)

## SEQ ID NO: 150 (LTQLGTFEDHFLSLQR; MOD_RES (16)..(16) Citrullinated Arginine)
[2]
  Modification (citrullination site identified): R16(Cit.)

## SEQ ID NO: 151 (TIQEVAGYVLIALNTVER; MOD_RES (18)..(18) Citrullinated Arginine)
[2]
  Modification (citrullination site identified): R18(Cit.)

## SEQ ID NO: 153 (FSNNPALCNVESIQWR; MOD_RES (16)..(16) Citrullinated Arginine)
[2]
  Modification (citrullination site identified): R16(Cit.)

## SEQ ID NO: 154 (SPSDCCHNQCAAGCTGPRESDCLVCR; MOD_RES (18)..(18) Citrullinated Arginine; MOD_RES (26)..(26) Citrullinated Arginine)
[2]
  Modification (citrullination site identified): R18(Cit.);; also recorded: R26(Cit.)

## SEQ ID NO: 155 (YSFGATCVKKCPRNYVVTDHGSCVR; MOD_RES (13)..(13) Citrullinated Arginine; MOD_RES (25)..(25) Citrullinated Arginine)
[2]
  Modification (citrullination site identified): R13(Cit.);; also recorded: R25(Cit.)

## SEQ ID NO: 156 (NYVVTDHGSCVRACGADSYEMEEDGVR; MOD_RES (27)..(27) Citrullinated Arginine)
[2]
  Modification (citrullination site identified): R27(Cit.)

## SEQ ID NO: 158 (CWGESSEDCQSLTR; MOD_RES (14)..(14) Citrullinated Arginine)
[3]
  Modification (citrullination site identified): R14(Cit.)

## SEQ ID NO: 159 (YTFGASCVTACPYNYLSTDVGSCTLVCPLHNQEVTAEDGTQR; MOD_RES (42)..(42) Citrullinated Arginine)
[3]
  Modification (citrullination site identified): R42(Cit.)

## SEQ ID NO: 160 (CEKCSKPCARVCYGLGMEHLR; MOD_RES (10)..(10) Citrullinated Arginine)
[3]
  Modification (citrullination site identified): R10(Cit.)

## SEQ ID NO: 162 (ILHNGAYSLTLQGLGISWLGLR; MOD_RES (22)..(22) Citrullinated Arginine)
[3]
  Modification (citrullination site identified): R22(Cit.)

## SEQ ID NO: 163 (ELGSGLALIHHNTHLCFVHTVPWDQLFR; MOD_RES (28)..(28) Citrullinated Arginine)
[3]
  Modification (citrullination site identified): R28(Cit.)

## SEQ ID NO: 164 (GHCWGPGPTQCVNCSQFLR; MOD_RES (19)..(19) Citrullinated Arginine)
[3]
  Modification (citrullination site identified): R19(Cit.)

## SEQ ID NO: 165 (GDSGEQVGQVAWAR; MOD_RES (14)..(14) Citrullinated Arginine)
[4]
  Modification (citrullination site identified): R14(Cit.)

## SEQ ID NO: 166 (NAVQADEGEYECR; MOD_RES (13)..(13) Citrullinated Arginine)
[4]
  Modification (citrullination site identified): R13(Cit.)

## SEQ ID NO: 167 (SMNGQPLTCVVSHPGLLQDQR; MOD_RES (21)..(21) Citrullinated Arginine)
[4]
  Modification (citrullination site identified): R21(Cit.)

## SEQ ID NO: 168 (ITHILHVSFLAEASVR; MOD_RES (16)..(16) Citrullinated Arginine)
[4]
  Modification (citrullination site identified): R16(Cit.)

## SEQ ID NO: 169 (GLEDQNLWHIGR; MOD_RES (12)..(12) Citrullinated Arginine)
[4]
  Modification (citrullination site identified): R12(Cit.)

## SEQ ID NO: 170 (VDGDTLGFPPLTTEHSGIYVCHVSNEFSSR; MOD_RES (30)..(30) Citrullinated Arginine)
[4]
  Modification (citrullination site identified): R30(Cit.)

## SEQ ID NO: 171 (FAGVFHVEKNGRYSISR; MOD_RES (17)..(17) Citrullinated Arginine)
[5]
  Modification (citrullination site identified): R17(Cit.)

## SEQ ID NO: 172 (DGTRYVQKGEYR; MOD_RES (4)..(4) Citrullinated Arginine; MOD_RES (12)..(12) Citrullinated Arginine)
[5]
  Modification (citrullination site identified): R4(Cit.);; also recorded: R12(Cit.)

## SEQ ID NO: 173 (TNPEDIYPSNPTDDDVSSGSSSER; MOD_RES (24)..(24) Citrullinated Arginine)
[5]
  Modification (citrullination site identified): R24(Cit.)

## SEQ ID NO: 174 (VDGNRQIIGYVIGTQQATPGPAYSGR; MOD_RES (5)..(5) Citrullinated Arginine; MOD_RES (26)..(26) Citrullinated Arginine)
[6]
  Modification (citrullination site identified): R5(Cit.);; also recorded: R26(Cit.)

## SEQ ID NO: 175 (SDLVNEEATGQFR; MOD_RES (13)..(13) Citrullinated Arginine)
[6]
  Modification (citrullination site identified): R13(Cit.)

## SEQ ID NO: 176 (NDTASYKCETQNPVSAR; MOD_RES (17)..(17) Citrullinated Arginine)
[6]
  Modification (citrullination site identified): R17(Cit.)

## SEQ ID NO: 177 (RSDSVILNVLYGPDAPTISPLNTSYR; MOD_RES (1)..(1) Citrullinated Arginine; MOD_RES (26)..(26) Citrullinated Arginine)
[6]
  Modification (citrullination site identified): R1(Cit.);; also recorded: R26(Cit.)

## SEQ ID NO: 178 (QDRTLTIVDTGIGMTK; MOD_RES (3)..(3) Citrullinated Arginine)
[7]
  Modification (citrullination site identified): R3(Cit.)

## SEQ ID NO: 179 (VTVITKHNDDEQYAWESSAGGSFTVRTDTGEPMGRGTK; MOD_RES (26)..(26) Citrullinated Arginine; MOD_RES (35)..(35) Citrullinated Arginine)
[7]
  Modification (citrullination site identified): R26(Cit.);; also recorded: R35(Cit.)

## SEQ ID NO: 181 (SLTNDWEDHLAVKHFSVEGQLEFR; MOD_RES (24)..(24) Citrullinated Arginine)
[7]
  Modification (citrullination site identified): R24(Cit.)

## SEQ ID NO: 182 (RVFIMDNCEELIPEYLNFIR; MOD_RES (1)..(1) Citrullinated Arginine; MOD_RES (20)..(20) Citrullinated Arginine)
[7]
  Modification (citrullination site identified): R1(Cit.);; also recorded: R20(Cit.)

## SEQ ID NO: 183 (GVVDSEDLPLNISR; MOD_RES (14)..(14) Citrullinated Arginine)
[7]
  Modification (citrullination site identified): R14(Cit.)

## SEQ ID NO: 186 (AQALRDNSTMGYMAAK; MOD_RES (5)..(5) Citrullinated Arginine)
[7]
  Modification (citrullination site identified): R5(Cit.)

## SEQ ID NO: 187 (SRAPVNWYQEK; MOD_RES (2)..(2) Citrullinated Arginine)
Peptide of HSP90AA1 (HSP90) Isoform 2, trypsin digest
  Modification (citrullination site identified): R2(Cit.)

## SEQ ID NO: 188 (KPSAGDDFDLGDAVVDGENDDPRPPNPPKPMPNPNPNHPSSSGSFSDADLADGVSGGEGK; MOD_RES (23)..(23) Citrullinated Arginine)
[8]
  Modification (citrullination site identified): R23(Cit.)

## SEQ ID NO: 189 (ENAEQGEVDMESHRNANAEPAVQR; MOD_RES (14)..(14) Citrullinated Arginine; MOD_RES (24)..(24) Citrullinated Arginine)
[8]
  Modification (citrullination site identified): R14(Cit.);; also recorded: R24(Cit.)

## SEQ ID NO: 190 (VAGLESLGDLFPNLTVIRGWK; MOD_RES (18)..(18) Citrullinated Arginine)
[9]
  Modification (citrullination site identified): R18(Cit.)

## SEQ ID NO: 191 (MEEVTGTKGRQSKGDINTR; MOD_RES (10)..(10) Citrullinated Arginine; MOD_RES (19)..(19) Citrullinated Arginine)
[9]
  Modification (citrullination site identified): R10(Cit.);; also recorded: R19(Cit.)

## SEQ ID NO: 192 (GRQSKGDINTRNNGER; MOD_RES (11)..(11) Citrullinated Arginine; MOD_RES (16)..(16) Citrullinated Arginine)
[9]
  Modification (citrullination site identified): R11(Cit.);; also recorded: R16(Cit.)

## SEQ ID NO: 193 (YGSQVEDQRECVSRQEYR; MOD_RES (9)..(9) Citrullinated Arginine; MOD_RES (18)..(18) Citrullinated Arginine)
[9]
  Modification (citrullination site identified): R9(Cit.);; also recorded: R18(Cit.)

## SEQ ID NO: 194 (SPLSTLTVYYSPETIGR; MOD_RES (17)..(17) Citrullinated Arginine)
[10]
  Modification (citrullination site identified): R17(Cit.)

## SEQ ID NO: 195 (YCCQVSNDVGPGR; MOD_RES (13)..(13) Citrullinated Arginine)
[10]
  Modification (citrullination site identified): R13(Cit.)

## SEQ ID NO: 196 (LDQEVQEETQGRFRLLGDPSR; MOD_RES (14)..(14) Citrullinated Arginine; MOD_RES (21)..(21) Citrullinated Arginine)
Peptide of CD33, trypsin digest
  Modification (citrullination site identified): R14(Cit.);; also recorded: R21(Cit.)
